Data as given in PubChem BioAssay AID686938 (Drosophila RNAi Screening Center, 2013).

Screen: 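Fly genes required for calcium entry once internal stores are emptied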 (primary screen)
Cells: Drosophila S2R+ cells
Knock-down reagent: long dsRNA against Drosophila genes, about 0.25 µg dsRNA per well, roughly 10,000 cells
Duration: 5 days of knock-down before the calcium assay
Treatment: thapsigargin (SERCA pump blocker) to empty calcium stores; entry signal taken 4 min after adding it
Detection: 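Per-well fluo-4 fluorescence in two replicates, unnormalised, measured in resting cells and 4 min after store depletion by the SERCA blocker thapsigargin; ratio of the two present in few wells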
Reading the numbers: calcium entry signal: higher = stronger calcium signal after store depletion; resting calcium signal: higher = higher resting calcium signal
Call rule: 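Hit if the duplicate-averaged plate z-score for entry over resting signal is under −3; wells with weak total dye signal (Fmax z < −2) or more than 5 off-targets removed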
Calls: active = strongly reduced calcium entry; inactive = no strong reduction
The screen tested about 23,000 reagents; shown is an unselected part of those that have a named target and a result. In the full data, 75 (0.33%) are marked active. 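Raw plate signals without normalisation; calls rest on plate z-scores that were not deposited; ratio present for only 364 wells.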 Unmarked entries are inactive. Names joined by + are all predicted targets of the reagent. No sequences are given here. Not stated in the record: the dose of the treatment.

no.	target	DRSC id	calcium entry signal, replicate 1 (fluorescence units)	calcium entry signal, replicate 2 (fluorescence units)	resting calcium signal, replicate 1 (fluorescence units)	resting calcium signal, replicate 2 (fluorescence units)
1	Ir76a (Ionotropic receptor 76a)	DRSC10987	3.21e7	3.72e7	1.46e7	2.24e7
2	CG17283	DRSC15219	4.00e7	4.74e7	1.90e7	7.14e7
3	CG7742	DRSC03066	4.31e7		2.03e7	
4	pns (pinstripe)	DRSC08598	3.46e7	3.95e7	1.79e7	1.74e7
5	CPT2 (Carnitine palmitoyltransferase 2)	DRSC08553	3.71e7	3.93e7	1.74e7	1.82e7
6	CG42245 + MEP-1	DRSC07993	5.30e7	4.51e7	2.84e7	1.97e7
7	CG42245 + MEP-1	DRSC08274	3.79e7	3.95e7	1.85e7	1.88e7
8	CG42245 + MEP-1	DRSC21460	1.98e7	2.10e7	1.13e7	1.05e7
9	CG17029	DRSC10240	3.81e7	6.01e7	2.08e7	2.44e7
10	CG31446	DRSC13111	4.37e7	5.53e7	2.09e7	2.55e7
11	kairos	DRSC19972	3.78e7	3.98e7	1.77e7	1.79e7
12	kairos	DRSC23286	3.75e7	4.40e7	1.85e7	1.78e7
13	comr (cookie monster)	DRSC04138	4.58e7	5.12e7	2.21e7	2.13e7
14	WASp	DRSC15032	3.71e7	4.84e7	1.84e7	1.85e7
15	Eaf6 (Esa1-associated factor 6)	DRSC09901	3.49e7	4.77e7	1.88e7	2.25e7
16	mad2	DRSC10274	3.10e7	3.03e7	1.92e7	1.72e7
17	Treh (Trehalase)	DRSC04548	3.58e7		1.93e7	
18	CG13310	DRSC09981	2.98e7	4.04e7	1.41e7	1.56e7
19	Tie (Tie-like receptor tyrosine kinase)	DRSC08104	3.43e7	3.44e7	1.89e7	1.54e7
20	Tie (Tie-like receptor tyrosine kinase)	DRSC08702	2.65e7	3.08e7	1.28e7	1.29e7
21	TotX (Turandot X)	DRSC22206	3.34e7	5.24e7	1.71e7	2.69e7
22	Ubc84D (Ubiquitin conjugating enzyme 84D)	DRSC12610	4.23e7	2.75e7	2.07e7	1.41e7
23	Tango8 (Transport and Golgi organization 8)	DRSC06474	4.20e7	1.82e7	1.99e7	9.77e6
24	Cyp6g1 (Cytochrome P450 6g1)	DRSC07386	3.20e7	3.53e7	1.47e7	1.76e7
25	CG12121	DRSC17816	2.66e7	3.31e7	1.38e7	1.70e7
26	Cox10 (Cytochrome c oxidase assembly factor 10)	DRSC02804	5.05e7		2.56e7	
27	Cpn (Calphotin)	DRSC16613	3.03e7	4.41e7	1.41e7	1.72e7
28	Gr64b + Gr64c	DRSC08444	3.55e7	4.10e7	1.81e7	1.70e7
29	Gr64b + Gr64c	DRSC08445	4.51e7	4.44e7	2.07e7	1.94e7
30	CG5381	DRSC02852	3.09e7	3.54e7	1.45e7	1.43e7
31	CG9578	DRSC20694	4.05e7	3.70e7	1.93e7	1.79e7
32	CG13130 (retired record)	DRSC02226	2.80e7	4.07e7	1.32e7	1.88e7
33	CG32299 + CG32298	DRSC07980	2.65e7	4.89e7	2.29e7	2.16e7
34	CG32299 + CG32298	DRSC22354	3.71e7	5.96e7	1.83e7	3.10e7
35	CG3631	DRSC15503	2.86e7	4.57e7	1.19e7	1.88e7
36	CG15210	DRSC19656	3.39e7	3.75e7	1.54e7	1.68e7
37	CG17109	DRSC15172	4.53e7	5.02e7	2.35e7	2.10e7
38	dimm (dimmed)	DRSC03100	4.67e7	5.34e7	2.01e7	2.28e7
39	Mef2 (Myocyte enhancer factor 2)	DRSC07468	4.23e7	3.21e7	1.72e7	1.53e7
40	CG12547	DRSC07759	3.07e7	4.41e7	1.50e7	1.86e7
41	Hs2st (Heparan sulfate 2-O-sulfotransferase)	DRSC03348	4.22e7		2.24e7	
42	Cypl (Cyclophilin-like)	DRSC08362	4.39e7	4.52e7	2.22e7	2.07e7
43	CG30274	DRSC04171	4.05e7	4.32e7	2.14e7	2.05e7
44	Cpr66D (Cuticular protein 66D)	DRSC10640	2.83e7	3.71e7	1.50e7	1.84e7
45	Cpr66D (Cuticular protein 66D)	DRSC10646	3.23e7	3.59e7	3.08e7	1.89e7
46	Cpr66D (Cuticular protein 66D)	DRSC23178	4.65e7	3.58e7	2.20e7	1.52e7
47	robl22E	DRSC00289	4.37e7	4.31e7	2.06e7	1.92e7
48	CG9705	DRSC11094	2.34e7	3.38e7	1.22e7	2.28e7
49	pie (pineapple eye)	DRSC03590	4.40e7		2.50e7	
50	CG42821	DRSC13231	3.58e7	2.22e7	1.67e7	1.12e7
51	hpo (hippo)	DRSC06065	3.46e7	2.97e7	1.63e7	1.64e7
52	CG17036	DRSC02564	4.58e7	3.41e7	2.04e7	1.43e7
53	Idh (Isocitrate dehydrogenase)	DRSC10779	3.97e7	2.90e7	2.54e7	1.17e7
54	CG13622	DRSC14624	3.88e7	4.49e7	2.23e7	1.92e7
55	antr (antares)	DRSC22392	1.86e7	2.22e7	1.04e7	9.26e6
56	HemK2 + Snapin	DRSC00736	3.49e7		1.99e7	
57	HemK2 + Snapin	DRSC00737	3.75e7	4.82e7	1.78e7	1.89e7
58	Ipo9 (Importin 9)	DRSC16813	2.93e7	3.17e7	1.50e7	1.60e7
